Data published in the supplement of paper PMC10849652.
The other results are listed elsewhere or left out.

Protein sequences, listed by entry. Tags and fused reporters are not part of them. Lines headed by an entry give the natural chain unless they say otherwise; changes in a name come on top.
UniProt P07237: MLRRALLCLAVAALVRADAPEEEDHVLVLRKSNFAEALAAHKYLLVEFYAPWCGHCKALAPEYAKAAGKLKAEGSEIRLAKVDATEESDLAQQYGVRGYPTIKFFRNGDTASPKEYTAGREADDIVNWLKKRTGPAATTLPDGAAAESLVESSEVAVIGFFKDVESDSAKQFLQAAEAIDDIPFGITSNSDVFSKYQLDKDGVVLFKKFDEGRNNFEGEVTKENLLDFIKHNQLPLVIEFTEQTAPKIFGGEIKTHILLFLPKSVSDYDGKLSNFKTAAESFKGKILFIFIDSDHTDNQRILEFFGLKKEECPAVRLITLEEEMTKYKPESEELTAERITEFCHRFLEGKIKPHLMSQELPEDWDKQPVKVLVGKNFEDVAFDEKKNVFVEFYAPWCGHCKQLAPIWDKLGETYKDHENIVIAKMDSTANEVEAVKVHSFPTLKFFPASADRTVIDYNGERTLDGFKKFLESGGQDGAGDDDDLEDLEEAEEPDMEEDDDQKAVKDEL
UniProt Q92882: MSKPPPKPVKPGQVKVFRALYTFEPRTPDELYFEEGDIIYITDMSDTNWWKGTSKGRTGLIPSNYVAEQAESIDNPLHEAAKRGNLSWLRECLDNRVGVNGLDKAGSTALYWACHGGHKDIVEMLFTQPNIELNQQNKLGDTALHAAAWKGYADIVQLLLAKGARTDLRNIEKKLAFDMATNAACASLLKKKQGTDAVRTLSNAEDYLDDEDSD
UniProt P55809: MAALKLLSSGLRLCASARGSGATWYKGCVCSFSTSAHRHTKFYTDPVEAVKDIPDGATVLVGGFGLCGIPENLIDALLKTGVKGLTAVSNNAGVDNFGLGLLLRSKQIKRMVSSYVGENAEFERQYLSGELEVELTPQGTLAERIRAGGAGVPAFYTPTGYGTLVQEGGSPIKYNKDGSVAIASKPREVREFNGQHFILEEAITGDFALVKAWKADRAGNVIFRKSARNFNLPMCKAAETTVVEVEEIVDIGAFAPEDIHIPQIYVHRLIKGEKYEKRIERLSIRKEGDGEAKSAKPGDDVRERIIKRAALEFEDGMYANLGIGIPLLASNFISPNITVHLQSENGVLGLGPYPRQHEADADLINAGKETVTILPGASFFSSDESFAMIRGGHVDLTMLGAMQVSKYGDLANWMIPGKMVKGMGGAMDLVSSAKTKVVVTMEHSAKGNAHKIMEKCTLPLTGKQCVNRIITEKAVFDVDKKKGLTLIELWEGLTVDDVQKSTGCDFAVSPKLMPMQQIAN
UniProt Q5JRK9: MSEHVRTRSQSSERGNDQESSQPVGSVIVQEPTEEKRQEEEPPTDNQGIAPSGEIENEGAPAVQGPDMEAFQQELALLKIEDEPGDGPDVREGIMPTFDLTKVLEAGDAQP
UniProt Q02218: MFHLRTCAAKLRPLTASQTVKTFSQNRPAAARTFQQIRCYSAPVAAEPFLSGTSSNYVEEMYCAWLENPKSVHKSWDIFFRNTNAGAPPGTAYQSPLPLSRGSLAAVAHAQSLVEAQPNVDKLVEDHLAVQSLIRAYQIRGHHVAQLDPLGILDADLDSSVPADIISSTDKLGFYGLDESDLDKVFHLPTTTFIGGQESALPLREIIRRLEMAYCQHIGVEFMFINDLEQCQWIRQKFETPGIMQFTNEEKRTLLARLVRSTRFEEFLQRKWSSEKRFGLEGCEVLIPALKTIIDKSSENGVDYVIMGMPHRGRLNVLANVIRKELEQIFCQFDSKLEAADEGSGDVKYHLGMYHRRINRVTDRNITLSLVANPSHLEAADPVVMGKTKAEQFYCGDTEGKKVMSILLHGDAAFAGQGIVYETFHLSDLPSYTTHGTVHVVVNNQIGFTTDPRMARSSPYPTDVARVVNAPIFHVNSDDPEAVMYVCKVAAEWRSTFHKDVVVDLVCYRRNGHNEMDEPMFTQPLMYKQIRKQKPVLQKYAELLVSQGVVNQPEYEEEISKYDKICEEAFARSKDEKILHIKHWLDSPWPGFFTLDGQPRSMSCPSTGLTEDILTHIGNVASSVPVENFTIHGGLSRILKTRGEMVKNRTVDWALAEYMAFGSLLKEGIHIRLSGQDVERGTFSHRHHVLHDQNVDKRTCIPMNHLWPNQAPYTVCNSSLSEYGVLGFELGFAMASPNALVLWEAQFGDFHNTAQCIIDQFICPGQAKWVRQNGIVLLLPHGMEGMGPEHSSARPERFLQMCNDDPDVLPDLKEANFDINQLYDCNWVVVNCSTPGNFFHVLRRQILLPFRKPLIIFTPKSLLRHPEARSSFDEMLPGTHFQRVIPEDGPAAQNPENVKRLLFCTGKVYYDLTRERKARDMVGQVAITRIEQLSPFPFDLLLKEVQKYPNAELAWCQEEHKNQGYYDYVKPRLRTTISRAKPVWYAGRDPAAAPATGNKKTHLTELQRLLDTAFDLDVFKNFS
UniProt Q9UKK6: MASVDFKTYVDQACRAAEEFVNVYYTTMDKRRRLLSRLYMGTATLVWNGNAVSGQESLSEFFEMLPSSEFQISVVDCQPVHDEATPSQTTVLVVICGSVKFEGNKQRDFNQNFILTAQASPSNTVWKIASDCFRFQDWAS
UniProt O15381: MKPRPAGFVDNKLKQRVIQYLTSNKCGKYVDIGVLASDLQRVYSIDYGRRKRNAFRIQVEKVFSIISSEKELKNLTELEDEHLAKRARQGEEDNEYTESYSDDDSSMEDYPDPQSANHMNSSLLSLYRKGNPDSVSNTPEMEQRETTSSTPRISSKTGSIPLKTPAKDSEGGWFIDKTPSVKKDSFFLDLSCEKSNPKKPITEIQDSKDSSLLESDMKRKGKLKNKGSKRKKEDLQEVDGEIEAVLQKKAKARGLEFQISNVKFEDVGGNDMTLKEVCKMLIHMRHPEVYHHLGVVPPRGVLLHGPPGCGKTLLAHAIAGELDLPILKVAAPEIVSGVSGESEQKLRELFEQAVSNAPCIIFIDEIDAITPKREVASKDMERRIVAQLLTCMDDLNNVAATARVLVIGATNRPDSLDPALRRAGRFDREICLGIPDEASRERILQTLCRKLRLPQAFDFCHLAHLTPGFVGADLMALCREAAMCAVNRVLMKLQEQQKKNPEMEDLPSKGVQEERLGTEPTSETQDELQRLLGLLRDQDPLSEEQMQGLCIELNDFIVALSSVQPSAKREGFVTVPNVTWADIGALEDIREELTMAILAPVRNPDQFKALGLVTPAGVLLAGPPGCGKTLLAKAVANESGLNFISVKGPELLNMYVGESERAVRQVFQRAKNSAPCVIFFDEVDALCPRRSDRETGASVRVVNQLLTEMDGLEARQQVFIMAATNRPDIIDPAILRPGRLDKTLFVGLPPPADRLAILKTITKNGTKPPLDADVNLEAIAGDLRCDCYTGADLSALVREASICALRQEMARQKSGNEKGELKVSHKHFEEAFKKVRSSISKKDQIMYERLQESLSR
UniProt Q9UQ80: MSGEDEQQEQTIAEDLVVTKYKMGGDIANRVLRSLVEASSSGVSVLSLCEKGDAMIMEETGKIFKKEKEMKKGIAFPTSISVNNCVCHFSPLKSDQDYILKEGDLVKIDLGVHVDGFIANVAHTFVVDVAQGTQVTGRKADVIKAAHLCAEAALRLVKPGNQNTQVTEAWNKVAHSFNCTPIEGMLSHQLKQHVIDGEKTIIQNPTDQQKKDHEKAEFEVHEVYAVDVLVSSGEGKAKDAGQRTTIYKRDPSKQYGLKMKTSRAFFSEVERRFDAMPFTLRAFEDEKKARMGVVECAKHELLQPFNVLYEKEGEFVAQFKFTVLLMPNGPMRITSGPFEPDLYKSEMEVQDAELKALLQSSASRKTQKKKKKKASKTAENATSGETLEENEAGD
UniProt Q9UKX7: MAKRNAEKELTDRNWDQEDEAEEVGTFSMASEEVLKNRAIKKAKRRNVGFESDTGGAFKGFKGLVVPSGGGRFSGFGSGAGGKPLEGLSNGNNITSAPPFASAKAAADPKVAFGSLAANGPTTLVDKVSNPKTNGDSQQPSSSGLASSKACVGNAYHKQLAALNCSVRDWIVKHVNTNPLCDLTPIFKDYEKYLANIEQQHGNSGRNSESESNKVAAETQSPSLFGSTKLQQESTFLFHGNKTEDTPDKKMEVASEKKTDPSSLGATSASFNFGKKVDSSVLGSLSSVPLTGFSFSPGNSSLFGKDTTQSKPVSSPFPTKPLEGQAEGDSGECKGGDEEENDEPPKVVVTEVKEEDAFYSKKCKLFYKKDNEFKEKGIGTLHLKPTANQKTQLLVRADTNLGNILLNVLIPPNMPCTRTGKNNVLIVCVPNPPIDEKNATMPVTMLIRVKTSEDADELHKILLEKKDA

Tests used:
Assay in all cases: log2 fold change, soluble protein after heating vs DMSO (PISA); higher = thermal stabilisation; K562 lysate, 10 uM; active = over 0.2 and 3.5 SD of the protein, either way, in both replicates (recomputed)
erlotinib = compound: C#Cc1cccc(Nc2ncnc3cc(OCCOC)c(OCCOC)cc23)c1 [erlotinib]
In short: (§1)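 The values are log-two fold changes in thermal stability compared with solvent controls and come from duplicates. They were obtained by TMTpro 16plex LC-MS/MS, with channel sums equalised, on the supernatant after 21,000xg for 90 min. That supernatant came from crude K562 extract at 1 mg/mL protein treated with 10 μM compound for 30 min, heated for 3 min across 48°C-58°C, pooled and brought to 0.5% NP-40 at 4°C.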

[1] = compound: C/C(=N\NC(=O)C1=CC(=CC=C1)S(=O)(=O)N2CCOCC2)/C3=C(C=CC(=C3)Cl)O
In short: as §1

[2] = compound: C1=CC(=CC=C1C2=NC3=C(N2)C=C(C=C3)C(=O)N)OC4=CC=C(C=C4)Cl
In short: as §1

[3] = compound: C1=CC2=C(C=CC(=C2)/C=C\3/C(=O)NC(=NCC4=CC=CS4)S3)N=C1
In short: as §1

[4] = compound: C1=CC2=NC=CN=C2C=C1/C=C/3\C(=O)NC(=O)S3
In short: as §1

[5] = compound: C1=CC=C(C=C1)C2=NC(=C(N2)C3=CC=NC=C3)C4=CC(=C(C=C4)Cl)O
In short: as §1

[6] = compound: C1=CC=C2C(=C1)C3=NNC4=CC=CC(=C43)C2=O
In short: as §1

[7] = compound: C1CCN(C1)C(=O)NC2=CC=CC(=C2)NC3=NC=C(C(=N3)NCCC4=CN=CN4)Br
In short: as §1

[8] = compound: C1CN(CCC1(CC2=CC=C(C=C2)Cl)N)C3=NC=NC4=C3C=CN4
In short: as §1

IRAK-1-4 Inhibitor I = compound: C1COCCN1CCN2C3=CC=CC=C3N=C2NC(=O)C4=CC(=CC=C4)[N+](=O)[O-] [IRAK-1-4 Inhibitor I]
In short: as §1

Measured: log2 fold change

P4HB (UniProt P07237)
inactive: erlotinib -0.039 | [1] 0.022 | [2] 0.006 | [3] -0.009 | [4] -0.011 | [5] -0.002 | [6] 0.034 | [7] -0.001 | [8] -0.013 | IRAK-1-4 Inhibitor I -0.025

OSTF1 (UniProt Q92882)
inactive: erlotinib -0.017 | [1] -0.055 | [2] 0.03 | [3] 0.051 | [4] -0.01 | [5] 0.005 | [6] 0.04 | [7] 0.088 | [8] 0.096 | IRAK-1-4 Inhibitor I 0.025

OXCT1 (UniProt P55809)
inactive: erlotinib -0.012 | [1] -0.011 | [2] 0.042 | [3] 0.01 | [4] -0.007 | [5] -0.014 | [6] 0.001 | [7] -0.012 | [8] 0.006 | IRAK-1-4 Inhibitor I 0.02

PAGE2B (UniProt Q5JRK9)
inactive: erlotinib 0.056 | [1] 0.038 | [2] -0.033 | [3] -0.085 | [5] -0.021 | [6] 0.093 | [7] 0.055 | [8] 0.055 | IRAK-1-4 Inhibitor I 0.148

OGDH (UniProt Q02218)
inactive: erlotinib -0.003 | [1] 0.037 | [2] 0.03 | [3] 0.036 | [4] -0.008 | [5] 0.002 | [6] 0.006 | [7] -0.027 | [8] 0.022 | IRAK-1-4 Inhibitor I 0.01

NXT1 (UniProt Q9UKK6)
inactive: erlotinib -0.027 | [1] -0.029 | [2] 0.006 | [3] 0.046 | [4] 0.133 | [5] 0.029 | [6] -0.05 | IRAK-1-4 Inhibitor I 0.085

NVL (UniProt O15381)
inactive: erlotinib -0.008 | [1] -0.024 | [2] 0.015 | [3] 0.04 | [4] -0.097 | [5] 0.058 | [6] 0.097 | IRAK-1-4 Inhibitor I 0.026

PA2G4 (UniProt Q9UQ80)
inactive: erlotinib 0.002 | [1] 0.034 | [2] 0.002 | [3] 0.002 | [4] -0.008 | [5] 0.003 | [6] -0.015 | [7] 0.008 | [8] -0.017 | IRAK-1-4 Inhibitor I -0.015

NUP50 (UniProt Q9UKX7)
inactive: erlotinib 0.012 | [1] -0.064 | [2] 0.02 | [3] -0.005 | [4] -0.014 | [5] 0.012 | [6] -0.001 | [7] -0.025 | [8] -0.001 | IRAK-1-4 Inhibitor I -0.012
